Measurements reported in article PMC4503722, “Novel Phenotypic Outcomes Identified for a Public Collection of Approved Drugs from a Publicly Accessible Panel of Assays” (PLoS ONE, 2015).
Read-outs that look alike come from different tables or passages of the source.

Experiments:
Experiment in all cases: cells
Format in all cases: cell-based
HCT116 = conditions: Homo sapiens
SW480 = conditions: Homo sapiens
DLD-1 = conditions: Homo sapiens
[1] = tested on: HCT116 cells treated with a GSK3β inhibitor; conditions: Homo sapiens
INS-1E cells = conditions: Rattus norvegicus, read-out: Insulin Secretion
NCI-H716 cells = conditions: Homo sapiens, NCI-H716, read-out: GLP 1 Secretion
[2] = tested on: nuclear β-catenin in C2C12 cells; conditions: Mus musculus, C2C12, read-out: Wnt Pathway

Row | Compound | IC50 (HCT116; HCT-116, 72 h, read-out: HCT-116 viab. IC50) | IC50 (HCT116; HCT-116, read-out: Basal_Viability ATP HCT116) | IC50 (SW480; SW480, 72 h, read-out: SW480 viab. IC50) | IC50 (SW480; SW480, read-out: Basal_Viability ATP SW480) | IC50 (DLD-1; DLD-1, 72 h, read-out: DLD-1 viab. IC50) | IC50 (DLD-1; DLD-1, read-out: Basal_Viability ATP DLD-1) | IC50 ([1]; HCT-116, 72 h, read-out: HCT-116 (GSK3β) viab. IC50) | EC50 (INS-1E cells) | EC50 (NCI-H716 cells) | EC50 [2] | IC50 ([1]; HCT-116, read-out: GSK3b inh pretreated_Viability ATP HCT116)
1 | CNC(=O)c1ccccc1Sc1ccc2c(/C=C/c3ccccn3)n[nH]c2c1 [axitinib, reference compound] | 16.8 µM | 16.8 µM | 5.1 µM | 5.1 µM | 4.5 µM | 4.53 µM | > 20 µM | – | – | – | –
2 | O=C(CCCCCCC(=O)Nc1ccccc1)NO [vorinostat] | – | – | – | – | – | – | – | > 10 µM | > 10 µM | > 10 µM | 1.33 µM
